PubChem BioAssay AID1259308 – NCATS | 2017
The whole screen tested about 59,000 reagents; below is a random part of them. About 1,510 of all reagents (2.6%) were called active. 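Calls use total luciferase alone and ignore viability, so some active siRNAs may act by altering cell number.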 The numbers tell different reagents against one gene apart.

Purpose: 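Genes whose loss raises luciferase production in HEK293 cells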 (primary screen)
Cell system: human HEK293 embryonic kidney cells stably expressing firefly luciferase (HEK-CMV-Luc2-Hygro)
Reagents: single siRNA against human genes, 0.8 pmol siRNA per well
Time to read-out: 72 h
Measurement: 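Reporter luminescence and viable-cell signal on separate replicate plates, given as percent of non-targeting control and median/MAD z-scores, plus per-cell luciferase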
Scale: total luciferase, z-score and total luciferase, % of control: higher = more reporter protein produced; luciferase per cell, z-score: higher = more reporter output per viable cell; viable cells, % of control: higher = more viable cells
Hit rule: 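An siRNA counts as active if its total luciferase robust z-score exceeds 3; genes with two or more such siRNAs out of three were retested with fresh siRNAs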
Meaning of the calls: active = raised luciferase; inactive = no rise

no.	gene knocked down	siRNA no.	total luciferase, z-score	total luciferase, % of control	luciferase per cell, z-score	viable cells, % of control	Outcome
1	TACR3 (GeneID 6870)	1	1.36	109	0.868	96.8	inactive
2	TACR3 (GeneID 6870)	2	-0.755	66.9	-0.594	87.4	inactive
3	TACR3 (GeneID 6870)	3	-0.492	72.1	-0.0336	81.3	inactive
4	PLEKHB2 (GeneID 55041)	1	0.406	90	0.0739	98.6	inactive
5	PLEKHB2 (GeneID 55041)	2	0.206	86	-0.345	105	inactive
6	PLEKHB2 (GeneID 55041)	3	1.31	108	1.71	76.9	inactive
7	PPM1K (GeneID 152926)	1	-0.279	76.3	0.732	70.3	inactive
8	PPM1K (GeneID 152926)	2	-0.638	69.2	-0.698	92.9	inactive
9	PPM1K (GeneID 152926)	3	-1.18	58.3	-0.998	84.8	inactive
10	CHCHD2P8 (GeneID 646630)	1	0.995	102	0.903	89.6	inactive
11	CHCHD2P8 (GeneID 646630)	2	-1.97	42.6	-2.15	83.9	inactive
12	CHCHD2P8 (GeneID 646630)	3	-0.0103	81.7	-0.0859	93.4	inactive
13	SLC30A9 (GeneID 10463)	1	-0.498	72	-0.0824	82.2	inactive
14	SLC30A9 (GeneID 10463)	2	-0.372	74.5	-0.494	94.8	inactive
15	SLC30A9 (GeneID 10463)	3	-0.54	71.2	-0.8	98.1	inactive
16	KLK11 (GeneID 11012)	1	0.777	97.3	0.34	99.4	inactive
17	KLK11 (GeneID 11012)	2	1.31	108	0.689	101	inactive
18	KLK11 (GeneID 11012)	3	2.76	137	3.06	68.3	inactive
19	CELSR2 (GeneID 1952)	1	0.444	90.7	1.39	70.4	inactive
20	CELSR2 (GeneID 1952)	2	1.62	114	1.24	91.9	inactive
21	CELSR2 (GeneID 1952)	3	-0.131	79.3	-0.147	92.1	inactive
22	ARL15 (GeneID 54622)	1	1.46	111	1.95	74.1	inactive
23	ARL15 (GeneID 54622)	2	-1.23	57.5	-1.34	91.3	inactive
24	ARL15 (GeneID 54622)	3	0.73	96.4	0.798	87.3	inactive
25	SNHG29 (GeneID 125144)	1	-0.182	78.3	-0.232	92.9	inactive
26	SNHG29 (GeneID 125144)	2	1.66	115	1.77	80.6	inactive
27	SNHG29 (GeneID 125144)	3	0.304	87.9	-0.0689	100	inactive
28	MSANTD1 (GeneID 345222)	1	1.48	111	1.58	82	inactive
29	MSANTD1 (GeneID 345222)	2	0.859	99	0.758	90.6	inactive
30	MSANTD1 (GeneID 345222)	3	-1.47	52.7	-0.817	73.1	inactive

Reprinted from above, 8 entries:
no.	gene knocked down	siRNA no.	total luciferase, z-score	total luciferase, % of control	luciferase per cell, z-score	viable cells, % of control	Outcome
13	SLC30A9 (GeneID 10463)	1	-0.498	72	-0.0824	82.2	inactive
14	SLC30A9 (GeneID 10463)	2	-0.372	74.5	-0.494	94.8	inactive
15	SLC30A9 (GeneID 10463)	3	-0.54	71.2	-0.8	98.1	inactive
16	KLK11 (GeneID 11012)	1	0.777	97.3	0.34	99.4	inactive
17	KLK11 (GeneID 11012)	2	1.31	108	0.689	101	inactive
18	KLK11 (GeneID 11012)	3	2.76	137	3.06	68.3	inactive
19	CELSR2 (GeneID 1952)	1	0.444	90.7	1.39	70.4	inactive
20	CELSR2 (GeneID 1952)	2	1.62	114	1.24	91.9	inactive

The list goes on:
no.	gene knocked down	siRNA no.	total luciferase, z-score	total luciferase, % of control	luciferase per cell, z-score	viable cells, % of control	Outcome
31	DHCR7 (GeneID 1717)	1	-1.23	57.4	-1.11	85.8	inactive
32	DHCR7 (GeneID 1717)	2	-0.154	78.8	0.636	74.5	inactive
33	DHCR7 (GeneID 1717)	3	0.816	98.1	0.00417	110	inactive
34	KRT17 (GeneID 3872)	1	0.46	91	0.186	96.8	inactive
35	KRT17 (GeneID 3872)	2	-0.784	66.3	-0.767	90.7	inactive
36	KRT17 (GeneID 3872)	3	-1.05	61	-1.52	102	inactive
37	C6orf52 (GeneID 347744)	1	0.202	85.9	-0.607	113	inactive
38	C6orf52 (GeneID 347744)	2	1.11	104	1.13	86.3	inactive
39	C6orf52 (GeneID 347744)	3	-1.4	54	-1.43	87.9	inactive
40	XPOT (GeneID 11260)	1	0.0953	83.8	-1.05	123	inactive
41	XPOT (GeneID 11260)	2	-1.5	52.1	-2	98.6	inactive
42	XPOT (GeneID 11260)	3	-0.169	78.5	-1.13	118	inactive
43	CCDC66 (GeneID 285331)	1	1.14	105	1.53	78.1	inactive
44	CCDC66 (GeneID 285331)	2	-0.724	67.5	-0.841	94.1	inactive
45	CCDC66 (GeneID 285331)	3	0.152	84.9	-0.512	109	inactive
46	CHI3L2 (GeneID 1117)	1	-0.176	78.4	-0.635	104	inactive
47	CHI3L2 (GeneID 1117)	2	1.08	103	0.45	103	inactive
48	CHI3L2 (GeneID 1117)	3	0.946	101	0.443	100	inactive
49	FCSK (GeneID 197258)	1	5.76	196	4.87	61	active
50	FCSK (GeneID 197258)	2	0.883	99.5	1.19	81.3	inactive
51	FCSK (GeneID 197258)	3	1.02	102	1.51	76.7	inactive
52	USP10 (GeneID 9100)	1	-0.722	67.5	-0.988	97.9	inactive
53	USP10 (GeneID 9100)	2	0.312	88.1	-0.285	106	inactive
54	USP10 (GeneID 9100)	3	-0.351	74.9	-0.673	99.9	inactive
55	SYT10 (GeneID 341359)	1	1.87	119	1.58	87.7	inactive
56	SYT10 (GeneID 341359)	2	-0.342	75.1	-0.871	106	inactive
57	SYT10 (GeneID 341359)	3	0.217	86.2	0.586	82.5	inactive
